Data as given in patent US20050214412A1, “APPARATUS AND METHOD FOR DELIVERING NUTRITIONAL SUPPLEMENTS WITH BEVERAGE SWEETENERS” (priority 2004, published 2005).

Test: Taste tests of aqueous solutions
Conditions: about 1 g of each component in 20 mL water, a couple drops on the tongue

## O=C1O[C@H]([C@@H](O)CO)C(O)=C1O [Vit. C, ascorbic acid]
  Taste Description: Sour, dissipates quickly, no aftertaste
Listed as Vitamin C
  Taste Description: sour taste
